# Experimental data: PMC4738263 (Scientific Reports, 2016)
# Results are given in words; binding and its absence hold for the method and conditions named. Sequences can lack the tags named with a protein.
# Target: Hydrogenobacter thermophilus cytochrome c552, wild type, without a His-tag (holo protein) (Hydrogenobacter thermophilus) (UniProt P15452)
# Assay: condition: only HT cyt c552 and cyt c552 free E. coli lysate freeze-thawed together; SEC; control: HT cyt c552 and cyt c552 free E. coli lysate freeze-thawed together, then size exclusion chromatography (Fig. S1)
binder,measurement,value
"Hydrogenobacter thermophilus cytochrome c552, wild type, without a His-tag (holo protein) (natural protein, UniProt P15452 19-98, looked up, heme c attached (holo protein)) NEQLAKQKGCMACHDLKAKKVGPAYADVAKKYAGRKDAVDYLAGKIKKGGSGVWGSVPMPPQNVTDAEAKQLAQWILSIK",binding,no binding
